The list shows a part of the results.

The assay addresses T1, OsSMF1 (Oryza sativa, UniProt Q6ZLB0 1-436).
T1 sequence: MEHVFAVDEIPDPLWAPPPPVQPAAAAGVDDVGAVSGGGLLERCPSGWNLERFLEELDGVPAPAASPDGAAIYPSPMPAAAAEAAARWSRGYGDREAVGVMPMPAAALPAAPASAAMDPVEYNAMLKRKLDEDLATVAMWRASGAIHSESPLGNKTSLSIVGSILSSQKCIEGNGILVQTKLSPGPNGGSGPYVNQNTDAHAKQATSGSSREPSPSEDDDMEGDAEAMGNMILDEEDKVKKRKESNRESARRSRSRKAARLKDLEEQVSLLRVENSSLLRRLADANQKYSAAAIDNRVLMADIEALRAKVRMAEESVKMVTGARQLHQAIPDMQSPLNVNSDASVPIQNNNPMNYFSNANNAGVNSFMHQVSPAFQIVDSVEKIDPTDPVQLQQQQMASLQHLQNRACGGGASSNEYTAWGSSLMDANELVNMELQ
Briefly: protein-binding microarray (RPBM); PBS, 2% BSA, 51.3 ng/ul salmon testes DNA, 50 uM zinc acetate, 200 nM TF, 25 C, 1 h; high values mean tight binding. To be noted: protein: recombinant; tags: N-terminal polyhistidine and DsRed monomer fusion (pET32a); chain copies: 2; label: CyDye5-dUTP incorporated in the synthesized complementary strand; 3' TTTTT single-stranded linker to array surface; dsDNA, one strand shown. A digest of the protocol: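 The binding signal is fluorescence intensity per array feature (arbitrary units). Readings came from an Axon 4000B scanner after a washed, 2% BSA-blocked, double-stranded custom Agilent array had been incubated for 1 h at 25 °C with 200 nM protein and 50 µM zinc acetate. The protein was a Ni–NTA-purified transcription factor fused N-terminally to polyhistidine and DsRed, expressed in E. coli BL21-CodonPlus.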
“AATAATTTTGGAATGGCACCGAATTACCCTCTCCACCTCGCGGAGTCACCTAGTGCAG”: the binding signal was 3160 fluorescence intensity (a.u.).
For “GGGGATTAGAGGGGAGAGAGGTTGTCTCTTTGAGATTCGTCGGAGTCACCTAGTGCAG”, the binding signal was 3250 fluorescence intensity (a.u.).
Turning to “AAATACGGAGAGAAGAAGGCTCACTAAGCGCGCTTACTATCGGAGTCACCTAGTGCAG”, the binding signal was 42500 fluorescence intensity (a.u.).
To “CAGCGTGACACGGTGGACGGGATGACGGCTATGGTTGCAGCGGAGTCACCTAGTGCAG” belongs 5720 fluorescence intensity (a.u.).
With “AACCGCACTGTGAATTTCTGACTAAATCAGAACTGTCATTCGGAGTCACCTAGTGCAG” the figure was 3830 fluorescence intensity (a.u.); with “TGAGAGGTCTACATCATTACATGTCAAGACAAGACTACCACGGAGTCACCTAGTGCAG”, 4540 fluorescence intensity (a.u.); with “ACTAATAGTGTTTCTTCATGACCTACCACTTCTTTATACGCGGAGTCACCTAGTGCAG”, 3620 fluorescence intensity (a.u.).
As for “CCCCGCGACTCCGCGACGCCGACGCGATCCACGGTTCCCCCGGAGTCACCTAGTGCAG”, the binding signal is 3280 fluorescence intensity (a.u.).
With “ATGCTGACACGTGGGTCTCACGCTGACTCAACCACCGATGCGGAGTCACCTAGTGCAG” the figure was 15000 fluorescence intensity (a.u.).
To “TCGAGCCGCGCACGCTGGAGGAGGCCCTCGTTCCGCGCGTCGGAGTCACCTAGTGCAG” belongs 3380 fluorescence intensity (a.u.); to “GCTGGTTCGTGCGTCCTTTGTATGTGACATGTTTGGGGAGCGGAGTCACCTAGTGCAG”, 3160 fluorescence intensity (a.u.).
With “GCCGAGGCCTGCTCAGTGGACACCACCAGCAAAGCAAGGGCGGAGTCACCTAGTGCAG” the figure was 3870 fluorescence intensity (a.u.).
As to “TTCTTAATTGTTCGGCTAAGCCAAACACCTAAAACGAACGCGGAGTCACCTAGTGCAG”, the binding signal was 4680 fluorescence intensity (a.u.).
With “TCTCTTCACACCATCACATGTAGTGCGTGTACTCCTAGAGCGGAGTCACCTAGTGCAG” the figure was 3800 fluorescence intensity (a.u.); with “TAATAATAACTTTTATTTTATTTGATTTTAATATCTTGCACGGAGTCACCTAGTGCAG”, 27500 fluorescence intensity (a.u.).
To “TCGTAGACGAGGTGGAGGTGCGGCCACGATCGACGGGAGCCGGAGTCACCTAGTGCAG” belongs 3180 fluorescence intensity (a.u.); to “TCTGGCGACCTCGCTGTCATCGTCGCCGCCGCGGTTCCCCCGGAGTCACCTAGTGCAG”, 4280 fluorescence intensity (a.u.); to “TTATAATATATATAATAAATAAATGTATGTTTACTTATAGCGGAGTCACCTAGTGCAG”, 19300 fluorescence intensity (a.u.).
In the case of “ACGGACGCTAACTTGCACGGGACGTGGAGGCGGATCTCCGCGGAGTCACCTAGTGCAG”, the binding signal is 3760 fluorescence intensity (a.u.).
Turning to “AGCTGAAGGCCCTCATGACGTGCCTCCATCAGGTATAGATCGGAGTCACCTAGTGCAG”, the binding signal is 5220 fluorescence intensity (a.u.).
With “TTTGTCTATAAATTTAGTCAAACTTGAAACAATTTGATTTCGGAGTCACCTAGTGCAG” the figure was 14600 fluorescence intensity (a.u.); with “ATAAACCAACAATCGTCTTCCTGTCATCAAGCTGTGTCCTCGGAGTCACCTAGTGCAG”, 3510 fluorescence intensity (a.u.); with “TATTTGGTCGTCGCTGGTTGTTTGTAGCACGCCAGCTCCACGGAGTCACCTAGTGCAG”, 3750 fluorescence intensity (a.u.).
To “GATCGAGGCAGCGGGCGCAACGTGGCGCGCGCTTTGCTTGCGGAGTCACCTAGTGCAG” belongs 7690 fluorescence intensity (a.u.); to “ATGGTGTTGTCTTGTACAGTCCATCACATGGTATTTGATGCGGAGTCACCTAGTGCAG”, 4130 fluorescence intensity (a.u.).
For the sequence “GCCGTGATGAAGTGATTGGGTGGCTGCAACAGCTAAAATGCGGAGTCACCTAGTGCAG”, the binding signal is 18600 fluorescence intensity (a.u.).
On to “TAGTGAAGTCAGAACATAAATATAGGGCACTATCAGCATACGGAGTCACCTAGTGCAG”, for which the binding signal is 3580 fluorescence intensity (a.u.).
To “GTGGGCTGTTTCCACGTCGTCCGTTTCTGGGCCGCACGTGCGGAGTCACCTAGTGCAG” belongs 6770 fluorescence intensity (a.u.).
For the sequence “TTCTAATTCACGGATATTGCTGCTACTGTGCCACGTGGCGCGGAGTCACCTAGTGCAG”, the binding signal is 18200 fluorescence intensity (a.u.).
With “GCAGTAGACACGACGTACTTGTCAATGGTGAGGCATTTATCGGAGTCACCTAGTGCAG” the figure was 3350 fluorescence intensity (a.u.).
To “TGAGTGATTTTATGCATTTGATACCATGGTGCCCATATATCGGAGTCACCTAGTGCAG” belongs 31900 fluorescence intensity (a.u.).
Turning to “CTAAGGGTATTCCCAACCCAATGACTAGGATTGTGTCTATCGGAGTCACCTAGTGCAG”, the binding signal was 6910 fluorescence intensity (a.u.).
For “AAATAAAAGTTCCTCACACGCACGCCCACGTCAGCGCATCCGGAGTCACCTAGTGCAG”, the binding signal is 20400 fluorescence intensity (a.u.).
As to “GAAGTATCAGAGACAGTTGCTGATGTGGTCCAACTTTCTACGGAGTCACCTAGTGCAG”, the binding signal is 6090 fluorescence intensity (a.u.).
As for “AGTGTATCCACATGGTCGAAGGTCGGTGTCATCACGATGACGGAGTCACCTAGTGCAG”, the binding signal is 3900 fluorescence intensity (a.u.).
To “TTTGTGCGTGTTACGAGTGACTTGCGTTTATATCCTGCTTCGGAGTCACCTAGTGCAG” belongs 6490 fluorescence intensity (a.u.); to “GCCGGATCAGGCGCGTCGGTGTGGAGGAATCGGCAGGGGTCGGAGTCACCTAGTGCAG”, 3820 fluorescence intensity (a.u.); to “GGCATTGATTCCCTGCTCGTTCATGTAAATGCGGCCATGTCGGAGTCACCTAGTGCAG”, 6470 fluorescence intensity (a.u.).
With “CAGCTTCTGAACAATCCACCGAATTGGCTCACGCGCTCAACGGAGTCACCTAGTGCAG”, the binding signal was 20300 fluorescence intensity (a.u.).
Regarding “ATTCCTTCGTCTGTTGCTGCTGACTGCGCGGGGCGGAAGACGGAGTCACCTAGTGCAG”, the binding signal is 3600 fluorescence intensity (a.u.).
To “AAGGAATAAATACGTGTCGACCAATGATTGAACCACACAACGGAGTCACCTAGTGCAG” belongs 5350 fluorescence intensity (a.u.); to “ACGACACTACCAATTGTTTGGCCTTCAATCCAAACTAGCACGGAGTCACCTAGTGCAG”, 3500 fluorescence intensity (a.u.).

These data come from paper PMC7819943, “Rice protein-binding microarrays: a tool to detect cis-acting elements near promoter regions in rice”.
